Measured values taken from article PMC4634911.
Where a chain is given by its changes, count along the chain named. Numbers in names are those of the source. Results are given in words; binding and its absence hold for the method and conditions named. In cells and extracts the contact can be indirect. Some entries that bind do so weakly or less than the wild type. For part of these data: Sequences can lack the tags named with a protein. Blank lines part the entries; values can stand above or below the binder they belong to.

Amino acid sequences for entries named in this document (tags omitted).
UniProt A6NGQ2: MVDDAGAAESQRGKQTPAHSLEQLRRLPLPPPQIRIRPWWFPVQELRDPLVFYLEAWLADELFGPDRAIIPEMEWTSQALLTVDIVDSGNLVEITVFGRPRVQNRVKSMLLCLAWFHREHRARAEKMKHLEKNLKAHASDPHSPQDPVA

Tests used:
[1] = target: T1, Flag-tagged TLE6 S510Y (human) (UniProt Q9H808); assay: co-IP; cells expressing Flag-tagged wild-type or S510Y TLE6; lysate on anti-Flag beads, 2 h at 4 °C, pull-down buffer 50 mM HEPES pH 7.5, 150 mM NaCl, 0.1 % Tween 20; immunoblot for OOEP and KDHC3L
T1 sequence: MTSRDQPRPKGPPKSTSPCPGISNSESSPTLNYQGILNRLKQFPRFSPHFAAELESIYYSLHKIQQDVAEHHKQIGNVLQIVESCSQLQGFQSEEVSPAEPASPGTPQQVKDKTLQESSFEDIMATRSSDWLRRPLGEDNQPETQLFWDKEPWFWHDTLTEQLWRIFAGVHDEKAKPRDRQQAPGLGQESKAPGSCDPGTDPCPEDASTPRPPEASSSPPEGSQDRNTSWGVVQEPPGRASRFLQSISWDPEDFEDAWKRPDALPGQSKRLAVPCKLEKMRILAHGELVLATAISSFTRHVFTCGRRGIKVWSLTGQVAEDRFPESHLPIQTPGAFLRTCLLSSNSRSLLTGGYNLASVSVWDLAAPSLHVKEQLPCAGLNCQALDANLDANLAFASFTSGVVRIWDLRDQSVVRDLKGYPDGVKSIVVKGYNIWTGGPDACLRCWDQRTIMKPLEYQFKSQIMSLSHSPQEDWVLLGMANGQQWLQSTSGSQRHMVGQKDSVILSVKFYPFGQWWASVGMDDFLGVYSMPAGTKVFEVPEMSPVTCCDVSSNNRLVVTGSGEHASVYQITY

[2] = target: T2, Flag-tagged TLE6, wild type (human) (UniProt Q9H808); assay: as above
T2 sequence: T1 sequence with Y510S

[3] = target: OOEP, endogenous in lymphoblastoid cells (human (endogenous in lymphoblastoid cell lines)) (UniProt A6NGQ2); assay: co-IP; endogenous proteins from control and patient lymphoblastoid cell extracts; precipitated with anti-OOEP or anti-KDHC3L/Ecat1 antibody (control IgG beside it) on Protein A dynabeads, 2 h at 4 °C, pull-down buffer 50 mM HEPES pH 7.5, 150 mM NaCl, 0.1 % Tween 20; immunoblot for TLE6
[4] = target: T3, KDHC3L/Ecat1 (KHDC3L), endogenous in lymphoblastoid cells (human (endogenous in lymphoblastoid cell lines)) (UniProt Q587J8); assay: as above
T3 sequence: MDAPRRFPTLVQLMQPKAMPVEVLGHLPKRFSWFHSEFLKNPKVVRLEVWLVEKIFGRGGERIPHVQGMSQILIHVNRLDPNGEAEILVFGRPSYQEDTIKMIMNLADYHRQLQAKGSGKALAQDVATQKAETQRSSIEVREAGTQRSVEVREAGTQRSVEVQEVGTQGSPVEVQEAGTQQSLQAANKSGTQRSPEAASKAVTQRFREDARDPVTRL

binding [1]: binds | binding [2]: binds
B1: KDHC3L (KHDC3L) in the cells transfected with Flag-TLE6 (protein, UniProt Q587J8 1-217)
chain: T3 sequence

binding [3]: binds | binding [4]: binds
B2: TLE6 (transducin-like enhancer of split 6), wild type, endogenous in control lymphoblastoid cells (protein, UniProt Q9H808-1 1-572)
chain: T1 sequence with Y510S

binding [3]: binds | binding [4]: binds
B3: TLE6 S510Y, endogenous in lymphoblastoid cells of patients homozygous for the mutation (protein, UniProt Q9H808-1 1-572)
chain: T1 sequence
